Assay results taken from PubChem BioAssay AID504467 (National Center for Advancing Translational Sciences (NCATS), 2011).
Screen size: about 330,000 compounds; about 7,700 (2.3%) were called active. The inconclusive results got no clear call from the source; some entries with a clear call stand among them for comparison. Calls come from the whole dose curve; as a rule, active = well fitted inhibition curve with a large enough effect; inconclusive = small, poorly fitted or top-dose-only effect, or effect the other way; inactive = flat fitted curve, though single readings scatter. A potency beside an inconclusive call is a rough fit, not a confirmed value.

Experiment: qHTS screen for small molecules that inhibit ELG1-dependent DNA repair in human embryonic kidney (HEK293T) cells expressing luciferase-tagged ELG1; note: nearly all actives have a fitted effect of over 55% in size
Conditions: HEK293T ELG1-luciferase reporter, luminescence, 16 h, DNA damage induced by 5-fluorouridine; activity change, negative = inhibition: at 46.1 µM (top of the series)
How it was run: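 DMSO vehicle served as the neutral condition. Each well held 2,000 cells given 5-fluorouridine plus compound; after 16 hr at 37 °C/5% CO2, ONE-Glo was added and luciferase measured 30 min later.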
% is set by controls: 0 for no effect and ±100 for the full control effect; potency is the fitted concentration of half-maximal effect.

Row | Structure (SMILES) | activity change, negative = inhibition | Potency
1 | CCn1cc(/C=C/C(=O)Nc2ccn(Cc3c(F)c(F)cc(F)c3F)n2)cn1 | inactive: -19.2% | –
2 | O=C1NCCCC1C(=O)N/N=C/c1ccccc1O (stereo unspecified) | inactive: 14.8% | –
3 | CCC(C(=O)OC)n1cnc2c(nnn2-c2ccc(C)cc2)c1=O (stereo unspecified) | – | inconclusive: 25.9 µM [activator, single point]
4 | CN=C1CC(SC)=C1c1ccc(C)cc1 | inactive: -26.1% | –
5 | CCOC(=O)Cc1csc(NC(=O)COc2ccc(OC)cc2)n1 | inactive: -14.5% | –
6 | COc1ccccc1C1CC(c2ccc(Cl)cc2)Nc2ncnn21 (stereo unspecified) | inactive: -0.034% | –
7 | Clc1ccc(N/N=C/c2cccnc2)cc1 | – | inconclusive: 14.6 µM [activator, partial curve]
8 | COC(=O)CCC(=O)OC1(C)C(=O)C2=CN(C(CO)CO)C(c3ccc(OC)cc3)=CC2=C(Br)C1=O (stereo unspecified) | – | inconclusive: 32.6 µM [activator, partial curve, poor fit]
9 | Cc1ccc(NNc2c(C)nc3ccccc3nc2=O)cc1 | – | inconclusive: 5.17 µM [activator, partial curve, poor fit]
10 | COc1cc(/C=C2\SC(N3CCCCC3)=NC2=O)cc(OC)c1OC | – | inconclusive: 29.1 µM [activator, single point]
11 | O=C(CN(C(=O)CCC(=O)Nc1ccccn1)c1cccc(F)c1)NCc1ccc2c(c1)OCO2 | inactive: -13.3% | –
12 | CC1(C)CC2CC(C)(CN2C(=O)c2cc(-c3ccccc3O)on2)C1 (stereo unspecified) | – | inconclusive: 9.2 µM [inhibitor, partial curve, poor fit]
13 | CC1(C)CC(N2CCN(CCO)CC2)=CC(=S)N1 | inactive: -12.7% | –
14 | CCOc1ccc(C(C(=O)NC2CCCCC2)N(C(=O)c2csnn2)C2CC2)cc1 (stereo unspecified) | inactive: -0.19% | –
15 | O=C(c1cc(-c2ccc(Cl)cc2Cl)on1)N1CCOCC1 | – | inconclusive: 1.16 µM [activator, partial curve]
16 | CCc1c(C)nc(SCC(=O)N2CCN(c3ccccc3OC)CC2)[nH]c1=O | – | inconclusive: 29.1 µM [activator, single point]
17 | CCC(C(=O)OC(C)C)c1ccc2ccccc2c1 (stereo unspecified) | inactive: 10.5% | –
18 | CCN(C(=O)COC(=O)c1ccc([N+](=O)[O-])o1)C1CCCCC1 | inactive: -9.93% | –
19 | Cc1cc(C(=O)Nc2ccc(Cl)c(S(=O)(=O)N3CCOCC3)c2)c2ccccc2n1 | – | inconclusive: 2.06 µM [inhibitor, partial curve, poor fit]
20 | Cc1nc2ccccc2c2oc(C(=O)NCCCN3CCCC(C)C3)cc12 (stereo unspecified) | – | inconclusive: 8.2 µM [activator, partial curve, poor fit]
21 | CN(C)c1ccc(CN(C(=O)c2ccc(Cl)c([N+](=O)[O-])c2)C2CCS(=O)(=O)C2)cc1 (stereo unspecified) | – | inconclusive: 29.1 µM [activator, single point]
22 | CCN(CC)CCCN=C1N[C@@H](c2cccc(C(F)(F)F)c2)C(C(=O)OC)=C(C)N1CC | – | inconclusive: 20.6 µM [activator, partial curve, poor fit]
23 | Cc1ccc(NC(=O)c2cc(C)n(-c3ccccc3)c2C)cc1 | – | inconclusive: 0.13 µM [activator, full curve]
24 | CCCCC(=O)NC(=S)Nc1cccc(NC(=O)c2ccco2)c1 | – | inconclusive: 23.1 µM [inhibitor, partial curve]

An excerpt of these results, as tab-separated lines.
Row	Structure (SMILES)	activity change, negative = inhibition	Potency
1	CCn1cc(/C=C/C(=O)Nc2ccn(Cc3c(F)c(F)cc(F)c3F)n2)cn1	inactive: -19.2%	–
2	O=C1NCCCC1C(=O)N/N=C/c1ccccc1O (stereo unspecified)	inactive: 14.8%	–
3	CCC(C(=O)OC)n1cnc2c(nnn2-c2ccc(C)cc2)c1=O (stereo unspecified)	–	inconclusive: 25.9 µM [activator, single point]
4	CN=C1CC(SC)=C1c1ccc(C)cc1	inactive: -26.1%	–
5	CCOC(=O)Cc1csc(NC(=O)COc2ccc(OC)cc2)n1	inactive: -14.5%	–
6	COc1ccccc1C1CC(c2ccc(Cl)cc2)Nc2ncnn21 (stereo unspecified)	inactive: -0.034%	–
7	Clc1ccc(N/N=C/c2cccnc2)cc1	–	inconclusive: 14.6 µM [activator, partial curve]
8	COC(=O)CCC(=O)OC1(C)C(=O)C2=CN(C(CO)CO)C(c3ccc(OC)cc3)=CC2=C(Br)C1=O (stereo unspecified)	–	inconclusive: 32.6 µM [activator, partial curve, poor fit]
9	Cc1ccc(NNc2c(C)nc3ccccc3nc2=O)cc1	–	inconclusive: 5.17 µM [activator, partial curve, poor fit]
10	COc1cc(/C=C2\SC(N3CCCCC3)=NC2=O)cc(OC)c1OC	–	inconclusive: 29.1 µM [activator, single point]
11	O=C(CN(C(=O)CCC(=O)Nc1ccccn1)c1cccc(F)c1)NCc1ccc2c(c1)OCO2	inactive: -13.3%	–
12	CC1(C)CC2CC(C)(CN2C(=O)c2cc(-c3ccccc3O)on2)C1 (stereo unspecified)	–	inconclusive: 9.2 µM [inhibitor, partial curve, poor fit]
13	CC1(C)CC(N2CCN(CCO)CC2)=CC(=S)N1	inactive: -12.7%	–
14	CCOc1ccc(C(C(=O)NC2CCCCC2)N(C(=O)c2csnn2)C2CC2)cc1 (stereo unspecified)	inactive: -0.19%	–
15	O=C(c1cc(-c2ccc(Cl)cc2Cl)on1)N1CCOCC1	–	inconclusive: 1.16 µM [activator, partial curve]
16	CCc1c(C)nc(SCC(=O)N2CCN(c3ccccc3OC)CC2)[nH]c1=O	–	inconclusive: 29.1 µM [activator, single point]
17	CCC(C(=O)OC(C)C)c1ccc2ccccc2c1 (stereo unspecified)	inactive: 10.5%	–
18	CCN(C(=O)COC(=O)c1ccc([N+](=O)[O-])o1)C1CCCCC1	inactive: -9.93%	–

More results

Row | Structure (SMILES) | activity change, negative = inhibition | Potency
25 | COc1ccc(CCn2c(=N)c(S(=O)(=O)c3ccc(Cl)cc3)cc3c(=O)n4ccccc4nc32)cc1 | – | inconclusive: 6.51 µM [inhibitor, single point]
26 | Cc1nc(NCc2ccco2)c2c(C)c(C)sc2n1 | – | active: 9.2 µM
27 | O=C1c2ccccc2C(=O)C1c1ccccn1 | – | inconclusive: 7.3 µM [activator, partial curve]
28 | CC(=O)c1cccc(NC(=O)N2CCCc3ccccc32)c1 | – | inconclusive: 14.6 µM [activator, partial curve]
29 | O=C(OCC(=O)N1CCCC1)c1ccccc1O | – | inconclusive: 20.6 µM [activator, single point]
30 | O=C(Nc1cc([N+](=O)[O-])ccc1F)c1ccc2c(c1)OCCO2 | – | inconclusive: 0.58 µM [activator, full curve]
31 | CC(=O)Nc1ccc(C2=NNC(=Nc3ccc(S(=O)(=O)N4CCOCC4)cc3)SC2)cc1 | – | inconclusive: 18.3 µM [inhibitor, single point]
32 | COc1ccccc1C(=O)Nc1ccnn1C1CCN(Cc2ccc3nonc3c2)CC1 | – | inconclusive: 29.1 µM [inhibitor, single point]
33 | O=C(OCC1COc2ccccc2O1)c1c(F)cccc1F (stereo unspecified) | – | inconclusive: 23.1 µM [activator, single point]
34 | CC1CCCC(NC(=O)C2N(CCCN3CCCC3)C(=O)C3C(C(=O)Nc4ccc(Cl)cc4)C4C=CC32O4)C1C (stereo unspecified) | inactive: -7.79% | –
35 | Cc1ccc(OCc2ccccc2Br)c([N+](=O)[O-])n1 | – | inconclusive: 11.6 µM [activator, single point]
36 | Cc1ccc(-c2nc(C)c(C(=O)O)s2)cc1 | – | inconclusive: 2.59 µM [activator, partial curve]
37 | Cc1ccccc1NC(=O)c1nn(C)c2c1CS(=O)(=O)c1ccccc1-2 | inactive: -0.53% | –
38 | Cc1ccccc1C1NC(c2ccccc2C)C(C)C(=O)C1C (stereo unspecified) | inactive: 3.63% | –
39 | O=C(NCc1cccc(Cl)c1)c1ccc(N2CC3CC(C2)c2cccc(=O)n2C3)c(NC(=O)c2cccnc2)c1 (stereo unspecified) | inactive: 8.78% | –
40 | O=C(CCn1cccn1)Nc1ccc2c(c1)OCO2 | – | inconclusive: 16.4 µM [activator, single point]
41 | NC(=O)Cc1nc(-c2ccccc2)cs1 | inactive: 18.2% | –
42 | CC1CCCC(NC(=O)C2CCC(CNc3c(N4CCCC4)c(=O)c3=O)CC2)C1C (stereo unspecified) | – | inconclusive: 23.1 µM [inhibitor, single point]
43 | Cc1ccc2c(c1)N(C(=O)CCC(=O)NC1CCCCCC1)CC(C)O2 (stereo unspecified) | inactive: 15.9% | –
44 | Cc1n[nH]c(=S)n1/N=C/c1ccc(OCc2ccc(Cl)cc2)cc1 | – | inconclusive: 16.4 µM [activator, single point]
45 | CCN(CC)S(=O)(=O)c1ccc(C(=O)Nc2nnc(C(C)C)s2)cc1 | – | inconclusive: 14.6 µM [activator, partial curve, poor fit]
46 | Cc1cc(-c2ccccc2)nc(N/N=C/c2ccc([N+](=O)[O-])cc2)n1 | – | active: 13 µM
47 | O=C(CSCc1ccccc1)N/N=C/c1ccccc1OCc1ccccc1 | – | inconclusive: 18.4 µM [inhibitor, single point]
48 | O=C(CSCc1ccc(F)cc1)Nc1ccc(F)cc1 | – | inconclusive: 1.16 µM [activator, single point]

Nothing new here: an excerpt of the list.
Row | Structure (SMILES) | activity change, negative = inhibition | Potency
45 | CCN(CC)S(=O)(=O)c1ccc(C(=O)Nc2nnc(C(C)C)s2)cc1 | – | inconclusive: 14.6 µM [activator, partial curve, poor fit]
46 | Cc1cc(-c2ccccc2)nc(N/N=C/c2ccc([N+](=O)[O-])cc2)n1 | – | active: 13 µM

(list continues)

Row | Structure (SMILES) | activity change, negative = inhibition | Potency
49 | CSc1ccc(/C=N/Nc2nc(C)cc(C)n2)cc1 | – | inconclusive: 29.1 µM [activator, single point]
50 | O=C1C(Cl)=C(NCc2cccnc2)C(=O)c2ccccc21 | – | active: 20.6 µM
51 | CCC(CC)C(=O)OCC(=O)Nc1cccc([N+](=O)[O-])c1 | – | inconclusive: 18.3 µM [inhibitor, single point]
52 | Cc1cc2nc(CCN3CCOCC3)n(S(=O)(=O)c3ccc(C(C)(C)C)cc3)c2cc1C | – | active: 20.6 µM
53 | O=[N+]([O-])c1ccc2nc(-c3ccccn3)[nH]c2c1 | – | inconclusive: 2.91 µM [activator, full curve]
54 | CC(C)c1ccc(NC(=O)C2CCCCN2S(=O)(=O)c2ccccc2)cc1 (stereo unspecified) | – | inconclusive: 23.1 µM [activator, partial curve, poor fit]
55 | COc1cc(-c2nc3cnccn3c2NC(C)(C)CC(C)(C)C)ccc1O | inactive: -29% | –
56 | Cc1ccc(S(=O)(=O)NNC(=S)Nc2cccc(F)c2)cc1 | – | inconclusive: 23.1 µM [inhibitor, partial curve, poor fit]
57 | COc1cc(OC)cc(C(=O)N2CC(=O)Nc3ccccc32)c1 | – | inconclusive: 29.1 µM [activator, single point]
58 | COc1cc(NC(=O)c2c(OC)cccc2OC)ccc1NC(=O)c1cc2ccccc2o1 | – | inconclusive: 2.91 µM [activator, full curve]
59 | COC(=O)C1CCCN1C(=O)COc1ccc(Cl)cc1Br (stereo unspecified) | inactive: 20.4% | –
60 | COc1ccccc1CC(=O)Nc1cccc(S(=O)(=O)N2CCOCC2)c1 | – | inconclusive: 6.51 µM [activator, single point]
61 | CCC(=O)Oc1ccc(-c2nc(-c3cccnc3)no2)cc1 | – | inconclusive: 2.59 µM [activator, full curve]
62 | Cc1cc(C)n(-c2nc3c(c(=O)n(C)c(=O)n3C)n2CCO)n1 | inactive: 0.354% | –
63 | CN(C)c1ccc(NC(=O)c2ccc(Cn3cc([N+](=O)[O-])cn3)cc2)cc1 | – | inconclusive: 4.61 µM [inhibitor, single point]
64 | O=C(NC1CC1)c1ccc(-c2nc3ccccc3s2)s1 | – | inconclusive: 0.291 µM [activator, partial curve, poor fit]
65 | Cc1nn(-c2ccccc2)c(Cl)c1C(=O)N1CCN(c2ncnc3c2cnn3-c2ccccc2)CC1 | – | active: 7.31 µM
66 | O=C(Nc1cccc(NC(=O)c2ccco2)c1)c1cnccn1 | – | inconclusive: 25.9 µM [inhibitor, partial curve, poor fit]
67 | COc1cc(OC)c(OC)cc1CNC(=O)c1ccc(COc2ccccc2)cc1 | – | active: 10.3 µM
68 | CC(=O)N(c1ccc(N(C(C)=O)S(=O)(=O)c2ccccc2)cc1)S(=O)(=O)c1ccccc1 | inactive: -20.3% | –
69 | O=C(CCNC(=O)c1ccc(Cl)cc1)Nc1nc2ccccc2[nH]1 | – | inconclusive: 16.4 µM [activator, single point]
70 | CCc1sc(C(=O)Nc2ccc(F)cc2C)cc1C | – | inconclusive: 16.4 µM [activator, single point]
71 | CN(C(=O)COC(=O)c1ccccc1Nc1ccccc1)c1c(N)n(Cc2ccccc2)c(=O)[nH]c1=O | inactive: -25.9% | –
